Experiment: Flavor
Conditions: suitability for oral administration and introduction into the lungs

In the case of `O=C(NC(CO)CO)c1c(I)c(C(=O)NC(CO)CO)c(I)c(N(CCO)C(=O)CC(=O)N(CCO)c2c(I)c(C(=O)NC(CO)CO)c(I)c(C(=O)NC(CO)CO)c2I)c1I` [A, malonic acid bis[3,5-bis(1,3-dihydroxyisopropylcarbamoyl)-2,4,6-triiodo-N-2-hydroxyethylanilide]], the flavor is reported as “slight and neutral flavor”.

In the case of `O=C(NCC(O)CO)c1c(I)c(C(=O)NCC(O)CO)c(I)c(N(CCO)C(=O)C(=O)N(CCO)c2c(I)c(C(=O)NCC(O)CO)c(I)c(C(=O)NCC(O)CO)c2I)c1I` (centres unmarked) [Example 2, Oxalic Acid Bis[3,5-bis(2,3-dihydroxypropylcarbamoyl)-2,4,6-triiodo-N-(2-hydroxyethyl)anilide]], the flavor is reported as “slight and neutral flavor”.
